From patent publication US7960130B2, “Method for activation of transient receptor potential cation channel, subfamily A, member 1 using acetaldehyde” (Korea University Industry and Academy Cooperation Foundation, priority 2008, dated 2011)
At least one compound was matched to its structure with a doubt left.

Tested on: trigeminal neurons
Experiment: Fluo-3 calcium imaging of cultured mouse trigeminal neurons
Conditions: 10 μM Forskolin, n=20

SMILES: C=C[C@@]1(C)CC(=O)[C@]2(O)[C@@]3(C)[C@@H](O)CCC(C)(C)[C@@H]3[C@H](O)[C@H](OC(C)=O)[C@@]2(C)O1 [Forskolin]
- mimicking of the PGE2-induced potentiation of acetaldehyde responses: failed to mimic
